According to the supplement of paper PMC12823440, “Inhibitors supercharge kinase turnover through native proteolytic circuits” (Nature, 2025):
The other results are listed elsewhere or left out. The calls rarely recur for the same compound in another form.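 In K562 cells expressing nanoluciferase-fused kinases, luminescence was recorded at 4 h intervals between 2 and 18 h, normalized as percent of control with DMSO at 100% and a positive control at 0%. A significant (2 sigma) signal drop marks a time point as decreased. The authors' rule for a hit is not shown and takes in more than the number of time points.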

By UniProt entry, the sequences of proteins in these tests, tags left out. Where a name states a change or a piece, a line headed by the entry shows the natural chain unless it says otherwise.
UniProt Q9BUB5: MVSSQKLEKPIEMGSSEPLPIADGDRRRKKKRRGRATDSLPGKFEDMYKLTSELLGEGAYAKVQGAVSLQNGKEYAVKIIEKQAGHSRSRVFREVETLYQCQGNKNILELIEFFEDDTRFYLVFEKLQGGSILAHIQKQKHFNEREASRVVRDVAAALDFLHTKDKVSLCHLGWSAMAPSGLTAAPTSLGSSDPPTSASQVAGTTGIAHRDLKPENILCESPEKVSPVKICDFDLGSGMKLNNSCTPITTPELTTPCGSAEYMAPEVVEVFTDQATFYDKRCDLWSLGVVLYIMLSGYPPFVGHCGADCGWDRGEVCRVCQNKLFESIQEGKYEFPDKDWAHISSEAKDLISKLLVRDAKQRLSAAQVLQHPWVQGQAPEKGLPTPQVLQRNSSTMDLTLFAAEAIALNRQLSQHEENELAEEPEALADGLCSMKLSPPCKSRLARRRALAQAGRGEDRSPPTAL

Target: MKNK1 (UniProt Q9BUB5)
Assay: number of time points (of 5) at which kinase-Nluc abundance scored as decreased, DMSO-normalised (count); higher = more persistent destabilization
Settings: K562; 2-18 h

| Compound | number of time points |
| --- | --- |
| O=Nc1c(-c2c(O)[nH]c3cc(Br)ccc23)[nH]c2ccccc12 [GSK 3 Inhibitor IX] (2.5 µM) | 0 |
| Cn1c2cc([S+](C)[O-])sc2c2cnn(Cc3cccc(N)c3)c(=O)c21 (stereo unspecified) (2.5 µM) | 0 |
| Cc1cc(-n2c(=O)ccc3c[nH]c4nccc-4c32)ccc1F (10 µM) | 0 |
| CCCn1/c(=N/C(=O)c2cccc(C(N)=O)c2)[nH]c2ccccc21 [Takinib] (10 µM) | 0 |
| CO[C@H]1C[C@@H]2CC[C@@H](C)[C@@](O)(O2)C(=O)C(=O)N2CCCC[C@H]2C(=O)O[C@H]([C@H](C)C[C@@H]2CC[C@@H](OCCO)[C@H](OC)C2)CC(=O)[C@H](C)/C=C(\C)[C@@H](O)[C@@H](OC)C(=O)[C@H](C)C[C@H](C)/C=C/C=C/C=C/1C [Everolimus] (10 µM) | 0 |
| Cc1cccc(-c2[nH]ncc2-c2ccnc3ccccc23)n1 (10 µM) | 0 |
| CC1(N)CCN(c2cccnc2NC(=O)c2nc(-c3ncccc3C(F)(F)F)cnc2N)CC1 [Darovasertib] (10 µM) | 0 |
| COc1cc2c(cc1Nc1ncc(C(N)=O)c(Nc3c(F)cccc3C(F)(F)F)n1)CN(C)CC2 (2.5 µM) | 0 |
| COc1cc2ncnc(Nc3ccc(O)c(Br)c3)c2cc1OC (10 µM) | 0 |
| Nc1nc2c(nc(Br)n2[C@@H]2O[C@@H]3COP(=O)(O)O[C@H]3[C@H]2O)c(=O)[nH]1 [8-Bromo-cGMP (sodium)] (10 µM) | 0 |
| O=c1c2c([nH]n1-c1nc3ccccc3s1)CCCC2 (10 µM) | 0 |
